Laboratory results taken from PMC9303297, “Characterization of an autonomous pathway complex that promotes flowering in Arabidopsis” (Nucleic Acids Research, 2022).
These are yes or no findings as the source states them, for the method shown. Binding calls can cover weak binding; strength is not graded here. Where a sequence is shown, tags or fusion partners need not be part of it.

Target: C-terminal region of LD, yeast two-hybrid fusion (Arabidopsis thaliana)
Assay: two-hybrid; GAL4 AD (pGADT7, AH109) and BD (pGBKT7, Y187) fusions, mated; growth on SD-Leu/Trp/His, 3-amino-1,2,4-triazole to reduce background

B1: APRF1, full-length, yeast two-hybrid fusion (protein, UniProt Q9LYK6 1-330)
chain: MSLTELDDGLVRRMAMGAVFSDFGGKIHSVGFHRTDDLLVTSSEDDSLRLFDIANAKQLKITYHKKHGTDRVCFTHHPSSLICSSRYNLESTGESLRYLSMYDNRILRYFKGHKDRVVSLCMSPINDSFMSGSLDRSVRLWDLRVNACQGILHLRGRPAVAYDQQGLVFAIAMEGGAVKLFDSRCYDKGPFDTFLVGGDTAEVNDIKFSNDGKSMLLTTTNNNIYVLDAYRGEKKCGFSLEPSQGTPIEATFTPDGKYVLSGSGDGTLHAWNIENPSEVARWENNIGVVSCLKWAPRRAMFVAASTVLTFWIPNDGESPAPADPPTDQQQ
- binding: binds
